Numbering of substitutions follows the chain as printed. These are yes or no findings as the source states them, for the method shown. For some assays here: Binding seen in cells or lysates may run through a third protein. Some entries that bind do so weakly or less than the wild type. For some assays here: Where a sequence is shown, tags or fusion partners need not be part of it.
B1: HA-tagged GADD45β (protein, not shown: small tags and cut ends)
chain: MTLEELVACDNAAQKMQTVTAAVEELLVAAQRQDRLTVGVYESAKLMNVDPDSVVLCLLAIDEEEEDDIALQIHFTLIQSFCCDNDINIVRVSGMQRLAQLLGEPAETQGTTEARDLHCLLVTNPHTDAWKSHGLVEVASYCEESRGNNQWVPYISLQER
B2: HA-tagged GADD45γ (protein, not shown: small tags and cut ends)
chain: MTLEEVRGQDTVPESTARMQGAGKALHELLLSAQRQGCLTAGVYESAKVLNVDPDNVTFCVLAAGEEDEGDIALQIHFTLIQAFCCENDIDIVRVGDVQRLAAIVGAGEEAGAPGDLHCILISNPNEDAWKDPALEKLSLFCEESRSVNDWVPSITLPE
B3: GADD45 Δ125-166 (protein)
chain: MTLEEFSAGEQKTERMDKVGDALEEVLSKALSQRTITVGVYEAAKLLNVDPDNVVLCLLAADEDDDRDVALQIHFTLIQAFCCENDINILRVSNPGRLAELLLLETDAGPAASEGAEQPPDLHC
B4: full length recombinant GADD45 (rGADD45) (protein)
chain: MTLEEFSAGEQKTERMDKVGDALEEVLSKALSQRTITVGVYEAAKLLNVDPDNVVLCLLAADEDDDRDVALQIHFTLIQAFCCENDINILRVSNPGRLAELLLLETDAGPAASEGAEQPPDLHCVLVTNPHSSQWKDPALSQLICFCRESRYMDQWVPVINLPER
B5: GADD45 site-mutagenesis mutant M74-79 (HA-tagged) (protein, not shown: small tags and cut ends)
chain: B4 chain with H74A, F75A, T76A, L77A, I78A, Q79A
B6: Myc-tag-GADD45 fusion protein (protein, not shown: small tags and cut ends)
chain: B4 chain
B7: HA-tagged full length GADD45 (1-165) (protein, not shown: small tags and cut ends)
chain: B4 chain
B8: GADD45 site-mutagenesis mutant M62-67 (HA-tagged) (protein, not shown: small tags and cut ends)
chain: B4 chain with D62A, E63A, D64A, D65A, D66A, R67A
B9: GADD45 site-mutagenesis mutant M82-87 (HA-tagged) (protein, not shown: small tags and cut ends)
chain: B4 chain with C82A, C83A, E84A, N85A, D86A, I87A

Protein sequences, listed by entry. Tags and fused reporters are not part of them.
UniProt P06493: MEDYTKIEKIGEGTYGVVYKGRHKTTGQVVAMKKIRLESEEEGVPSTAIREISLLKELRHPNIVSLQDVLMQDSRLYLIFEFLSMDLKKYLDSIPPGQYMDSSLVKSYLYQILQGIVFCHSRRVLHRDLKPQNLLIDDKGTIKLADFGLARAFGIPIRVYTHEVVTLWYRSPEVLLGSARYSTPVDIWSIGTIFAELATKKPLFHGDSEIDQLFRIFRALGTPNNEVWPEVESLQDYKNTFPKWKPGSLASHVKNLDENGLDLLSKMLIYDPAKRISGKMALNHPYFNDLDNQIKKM
UniProt P12004: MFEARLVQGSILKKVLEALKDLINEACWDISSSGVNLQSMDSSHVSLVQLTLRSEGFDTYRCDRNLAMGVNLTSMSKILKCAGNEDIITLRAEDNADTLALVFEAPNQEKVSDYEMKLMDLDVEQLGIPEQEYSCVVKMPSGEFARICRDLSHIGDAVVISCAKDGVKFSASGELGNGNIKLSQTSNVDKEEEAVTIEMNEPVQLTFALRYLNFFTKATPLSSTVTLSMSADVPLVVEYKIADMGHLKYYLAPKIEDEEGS
UniProt P38936: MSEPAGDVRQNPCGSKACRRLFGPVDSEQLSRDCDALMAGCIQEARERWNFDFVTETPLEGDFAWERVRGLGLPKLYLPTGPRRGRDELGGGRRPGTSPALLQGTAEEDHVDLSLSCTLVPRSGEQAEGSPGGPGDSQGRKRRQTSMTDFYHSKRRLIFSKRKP

Assays:
Cdc2 (human) [1] = molecular target: Cdc2 (human) (UniProt P06493); assay: co-immunoprecipitation with anti-Cdc2 from transfected HCT116 cells, anti-HA immunoblot
Cdc2/Cyclin B1 complex [2] = molecular target: Cdc2/Cyclin B1 complex (UniProt P06493); assay: ELISA, plate coated with 100 ng Cdc2/Cyclin B1 complex, 40 ng protein, anti-GADD45 detection
Cdc2/Cyclin B1 complex [3] = molecular target: Cdc2/Cyclin B1 complex (UniProt P06493); assay: ELISA, plate coated with 100 ng Cdc2/Cyclin B1 complex, 40 ng rGADD45, anti-GADD45 detection
Cdc2 (human) [4] = molecular target: Cdc2 (human) (UniProt P06493); assay: co-immunoprecipitation with anti-Cdc2 from transfected HCT116 cells, anti-HA Western blot
PCNA (human) = PCNA (human) (UniProt P12004); assay: co-immunoprecipitation with anti-PCNA from transfected HCT116 cells, anti-HA Western blot
p21^Cip1/Wafl (human) [5] = molecular target: p21^Cip1/Wafl (human) (UniProt P38936); assay: co-immunoprecipitation with anti-p21 from transfected HCT116 cells, anti-HA Western blot
Cdc2 (human) [6] = molecular target: Cdc2 (human) (UniProt P06493); assay: co-immunoprecipitation from transfected RKO cells (similar in MCF-7), immunoblot
Cdc2 (human) [7] = molecular target: Cdc2 (human) (UniProt P06493); assay: co-immunoprecipitation from transfected HCT116 cells (Example 8), retold
p21^Cip1/Wafl (human) [8] = molecular target: p21^Cip1/Wafl (human) (UniProt P38936); assay: as above

Binder | binding (Cdc2 (human) [1]) | binding (Cdc2 (human) [4]) | binding (PCNA (human)) | binding (p21^Cip1/Wafl (human) [5]) | further results
B1 | binds | – | – | – | –
B2 | binds | – | – | – | –
B3 | – | – | – | – | binding (Cdc2/Cyclin B1 complex [2]): binds
B4 | – | – | – | – | binding (Cdc2/Cyclin B1 complex [3]): binds
B5 | – | binds | binds | binds | –
B6 | – | – | – | – | binding (Cdc2 (human) [6]): binds
B7 | binds | binds | binds | binds | –
B8 | – | binds | binds | binds | binding (Cdc2 (human) [7]): binds; binding (p21^Cip1/Wafl (human) [8]): binds
B9 | – | binds | binds | binds | –
